In publication PMC8786845:
No constants are given. Whether binding was seen depends on the method and setting. Binding seen in cells or lysates may run through a third protein. Some binding calls cover weakened binding; strength is not graded here.

By UniProt entry, the sequences of proteins in these tests, tags left out. Residues count along the entry.
UniProt P26951, residues 19-378: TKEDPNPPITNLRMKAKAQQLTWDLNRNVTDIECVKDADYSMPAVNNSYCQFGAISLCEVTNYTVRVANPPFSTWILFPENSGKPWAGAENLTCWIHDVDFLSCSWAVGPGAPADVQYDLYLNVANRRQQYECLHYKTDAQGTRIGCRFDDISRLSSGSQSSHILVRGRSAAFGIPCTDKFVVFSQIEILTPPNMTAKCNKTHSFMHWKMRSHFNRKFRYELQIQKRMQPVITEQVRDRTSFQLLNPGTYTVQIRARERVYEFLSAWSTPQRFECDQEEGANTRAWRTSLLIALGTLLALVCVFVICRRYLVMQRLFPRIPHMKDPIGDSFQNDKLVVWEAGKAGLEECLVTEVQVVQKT

Target: IL-3 receptor α (IL-3Rα), endogenous in TF-1 cells (human (endogenous in TF-1)) (UniProt P26951)
Experiment: co-IP; endogenous co-IP from TF-1 lysates (cells starved overnight, untreated or IL-3 20 ng/mL for the indicated times); immunoprecipitated with anti-IL-3Rα or control mouse IgG, blotted with anti-MARCH3; NP-40 lysis buffer, washes with 500 mM NaCl

- binding: binds
B1: MARCH3 (membrane-associated RING-CH-type finger 3), endogenous in TF-1 cells (enzyme, UniProt Q86UD3 1-253)
chain: MTTSRCSHLPEVLPDCTSSAAPVVKTVEDCGSLVNGQPQYVMQVSAKDGQLLSTVVRTLATQSPFNDRPMCRICHEGSSQEDLLSPCECTGTLGTIHRSCLEHWLSSSNTSYCELCHFRFAVERKPRPLVEWLRNPGPQHEKRTLFGDMVCFLFITPLATISGWLCLRGAVDHLHFSSRLEAVGLIALTVALFTIYLFWTLVSFRYHCRLYNEWRRTNQRVILLIPKSVNVPSNQPSLLGLHSVKRNSKETVV
